{"source": "the supplement of paper PMC8728848", "assay_in_all_cases": "glycan array binding signal (z-score within array); higher = stronger binding", "conditions_in_all_cases": "glycan notation: IUPAC condensed, linker removed; mutation: Q318A", "key": {"[1]": {"target": "Gal(b1-3)GlcNAc(b1-2)Man(a1-3)[Gal(b1-3)GlcNAc(b1-2)Man(a1-6)]Man(b1-4)GlcNAc(b1-4)GlcNAc", "procedure,_shortened": "(§1)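 The Consortium for Functional Glycomics database supplied 3228 glycan arrays, of which those lacking an available protein sequence were dropped. The binding signal, a within-array Z-score, was averaged across arrays of the same protein sequence and across linkers. Negative scores can be read as non-binding.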"}, "[2]": {"target": "Gal(b1-3)GlcNAc(b1-2)Man(a1-3)[Gal(b1-3)GlcNAc(b1-2)Man(a1-6)]Man(b1-4)GlcNAc(b1-4)[Fuc(a1-6)]GlcNAc", "procedure,_shortened": "as §1"}, "[3]": {"target": "Gal(b1-3)GlcNAc(b1-2)Man(a1-3)[GlcNAc(b1-4)][Gal(b1-3)GlcNAc(b1-2)Man(a1-6)]Man(b1-4)GlcNAc(b1-4)GlcNAc", "procedure,_shortened": "as §1"}, "[4]": {"target": "Gal(b1-3)GlcNAc(b1-2)[Gal(b1-3)GlcNAc(b1-6)]Man(a1-6)[Gal(b1-3)GlcNAc(b1-2)Man(a1-3)]Man(b1-4)GlcNAc(b1-4)GlcNAc", "procedure,_shortened": "as §1"}, "[5]": {"target": "Gal(b1-3)GlcNAc(b1-3)Gal(b1-3)GlcNAc", "procedure,_shortened": "as §1"}, "[6]": {"target": "Gal(b1-3)GlcNAc(b1-3)Gal(b1-4)Glc", "procedure,_shortened": "as §1"}, "[7]": {"target": "Gal(b1-3)GlcNAc(b1-3)Gal(b1-4)GlcNAc", "procedure,_shortened": "as §1"}, "[8]": {"target": "Gal(b1-3)GlcNAc(b1-3)Gal(b1-4)GlcNAc(b1-2)Man(a1-3)[Gal(b1-3)GlcNAc(b1-3)Gal(b1-4)GlcNAc(b1-2)Man(a1-6)]Man(b1-4)GlcNAc(b1-4)GlcNAc", "procedure,_shortened": "as §1"}, "[9]": {"target": "Gal(b1-3)GlcNAc(b1-3)Gal(b1-4)GlcNAc(b1-2)[Gal(b1-3)GlcNAc(b1-3)Gal(b1-4)GlcNAc(b1-6)]Man(a1-6)[Gal(b1-3)GlcNAc(b1-3)Gal(b1-4)GlcNAc(b1-2)Man(a1-3)]Man(b1-4)GlcNAc(b1-4)[Fuc(a1-6)]GlcNAc", "procedure,_shortened": "as §1"}, "[10]": {"target": "Gal(b1-3)GlcNAc(b1-3)Gal(b1-4)GlcNAc(b1-3)Gal(b1-4)GlcNAc(b1-2)[Gal(b1-3)GlcNAc(b1-3)Gal(b1-4)GlcNAc(b1-3)Gal(b1-4)GlcNAc(b1-6)]Man(a1-6)[Gal(b1-3)GlcNAc(b1-3)Gal(b1-4)GlcNAc(b1-3)Gal(b1-4)GlcNAc(b1-2)Man(a1-3)]Man(b1-4)GlcNAc(b1-4)[Fuc(a1-6)]GlcNAc", "procedure,_shortened": "as §1"}, "[11]": {"target": "Gal(b1-3)GlcNAc(b1-3)Gal(b1-4)GlcNAc(b1-6)[Gal(b1-3)GlcNAc(b1-3)]Gal(b1-4)Glc", "procedure,_shortened": "as §1"}, "[12]": {"target": "Gal(b1-3)GlcNAc(b1-3)Gal(b1-4)[Fuc(a1-3)]GlcNAc", "procedure,_shortened": "as §1"}, "[13]": {"target": "Gal(b1-3)GlcNAc(b1-3)Gal(b1-4)[Fuc(a1-3)]GlcNAc(b1-6)[Gal(b1-3)GlcNAc(b1-3)]Gal(b1-4)Glc", "procedure,_shortened": "as §1"}, "[14]": {"target": "Gal(b1-3)GlcNAc(b1-3)GalNAc", "procedure,_shortened": "as §1"}, "[15]": {"target": "Gal(b1-3)GlcNAc(b1-6)Gal(b1-4)GlcNAc", "procedure,_shortened": "as §1"}, "[16]": {"target": "Gal(b1-3)GlcNAc(b1-6)GalNAc", "procedure,_shortened": "as §1"}, "[17]": {"target": "Gal(b1-3)GlcNAc(b1-6)[Gal(b1-3)]GalNAc", "procedure,_shortened": "as §1"}, "Gal(b1-3)GlcNAc6S": {"target": "Gal(b1-3)GlcNAc6S", "procedure,_shortened": "as §1"}, "[18]": {"target": "Gal(b1-3)[Fuc(a1-4)]GlcNAc", "procedure,_shortened": "as §1"}, "[19]": {"target": "Gal(b1-3)[Fuc(a1-4)]GlcNAc(b1-2)Man", "procedure,_shortened": "as §1"}, "[20]": {"target": "Gal(b1-3)[Fuc(a1-4)]GlcNAc(b1-2)Man(a1-3)[Gal(b1-3)[Fuc(a1-4)]GlcNAc(b1-2)Man(a1-6)]Man(b1-4)GlcNAc(b1-4)[Fuc(a1-6)]GlcNAc", "procedure,_shortened": "as §1"}, "[21]": {"target": "Gal(b1-3)[Fuc(a1-4)]GlcNAc(b1-3)Gal(b1-3)[Fuc(a1-4)]GlcNAc", "procedure,_shortened": "as §1"}, "[22]": {"target": "Gal(b1-3)[Fuc(a1-4)]GlcNAc(b1-3)Gal(b1-4)[Fuc(a1-3)]GlcNAc", "procedure,_shortened": "as §1"}, "[23]": {"target": "Gal(b1-3)[Fuc(a1-4)]GlcNAc(b1-6)GalNAc", "procedure,_shortened": "as §1"}, "[24]": {"target": "Gal(b1-3)[GlcNAc(b1-6)]GalNAc", "procedure,_shortened": "as §1"}, "[25]": {"target": "Gal(b1-3)[Neu5Ac(a2-6)]GalNAc", "procedure,_shortened": "as §1"}, "[26]": {"target": "Gal(b1-3)[Neu5Ac(a2-6)]GlcNAc(b1-4)Gal(b1-4)Glc", "procedure,_shortened": "as §1"}, "[27]": {"target": "Gal(b1-3)[Neu5Ac(b2-6)]GalNAc", "procedure,_shortened": "as §1"}, "Gal(b1-4)Gal": {"target": "Gal(b1-4)Gal", "procedure,_shortened": "as §1"}, "[28]": {"target": "Gal(b1-4)GalNAc(a1-3)[Fuc(a1-2)]Gal(b1-4)GlcNAc", "procedure,_shortened": "as §1"}, "[29]": {"target": "Gal(b1-4)GalNAc(b1-3)[Fuc(a1-2)]Gal(b1-4)GlcNAc", "procedure,_shortened": "as §1"}, "Gal(b1-4)Glc": {"target": "Gal(b1-4)Glc", "procedure,_shortened": "as §1"}, "Gal(b1-4)Glc6S": {"target": "Gal(b1-4)Glc6S", "procedure,_shortened": "as §1"}, "Gal(b1-4)GlcNAc": {"target": "Gal(b1-4)GlcNAc", "procedure,_shortened": "as §1"}, "[30]": {"target": "Gal(b1-4)GlcNAc(a1-6)Gal(b1-4)GlcNAc", "procedure,_shortened": "as §1"}, "Gal(b1-4)GlcNAc(b1-2)Man": {"target": "Gal(b1-4)GlcNAc(b1-2)Man", "procedure,_shortened": "as §1"}, "[31]": {"target": "Gal(b1-4)GlcNAc(b1-2)Man(a1-3)Man(b1-4)GlcNAc(b1-4)GlcNAc", "procedure,_shortened": "as §1"}}, "note": "Some of the results follow.", "data": [{"binder": "SUN4 (Saccharomyces cerevisiae), P53616 (protein) MGSSHHHHHHSSGLVPRGSHNGSIYGDLADFSGPYEKFEDGTIPCGQFPSGQGVIPISWLDEGGWSGVENTDTSTGGSCKEGSYCSYACQPGMSKTQWPSDQPSDGRSIGGLLCKDGYLYRSNTDTDYLCEWGVDAAYVVSELSNDVAICRTDYPGTENMVIPTYVQAGDSLPLTVVDQDTYYTWQGLKTSAAYYVNNAGISVEDACVWGSSSSGVGNWAPLNFGAGSSDGVAYLSLIPNPNNGNALNFNVKIVAADDSSTVNGECIYENGSFSGGSDGCTVSVTAGKAKFVLYN", "values": [{"measurement": "glycan array binding signal (z-score)", "setting": "[1]", "result": -1.04}, {"measurement": "glycan array binding signal (z-score)", "setting": "[2]", "result": 0.772}, {"measurement": "glycan array binding signal (z-score)", "setting": "[3]", "result": 0.24}, {"measurement": "glycan array binding signal (z-score)", "setting": "[4]", "result": 0.517}, {"measurement": "glycan array binding signal (z-score)", "setting": "[5]", "result": 0.876}, {"measurement": "glycan array binding signal (z-score)", "setting": "[6]", "result": 0.001}, {"measurement": "glycan array binding signal (z-score)", "setting": "[7]", "result": -0.119}, {"measurement": "glycan array binding signal (z-score)", "setting": "[8]", "result": 1.14}, {"measurement": "glycan array binding signal (z-score)", "setting": "[9]", "result": 0.027}, {"measurement": "glycan array binding signal (z-score)", "setting": "[10]", "result": 2.21}, {"measurement": "glycan array binding signal (z-score)", "setting": "[11]", "result": -0.223}, {"measurement": "glycan array binding signal (z-score)", "setting": "[12]", "result": -0.128}, {"measurement": "glycan array binding signal (z-score)", "setting": "[13]", "result": 0.399}, {"measurement": "glycan array binding signal (z-score)", "setting": "[14]", "result": 1.45}, {"measurement": "glycan array binding signal (z-score)", "setting": "[15]", "result": -0.212}, {"measurement": "glycan array binding signal (z-score)", "setting": "[16]", "result": 0.162}, {"measurement": "glycan array binding signal (z-score)", "setting": "[17]", "result": -0.256}, {"measurement": "glycan array binding signal (z-score)", "setting": "Gal(b1-3)GlcNAc6S", "result": -0.51}, {"measurement": "glycan array binding signal (z-score)", "setting": "[18]", "result": -0.571}, {"measurement": "glycan array binding signal (z-score)", "setting": "[19]", "result": -0.021}, {"measurement": "glycan array binding signal (z-score)", "setting": "[20]", "result": 0.721}, {"measurement": "glycan array binding signal (z-score)", "setting": "[21]", "result": -0.237}, {"measurement": "glycan array binding signal (z-score)", "setting": "[22]", "result": -0.954}, {"measurement": "glycan array binding signal (z-score)", "setting": "[23]", "result": -0.117}, {"measurement": "glycan array binding signal (z-score)", "setting": "[24]", "result": -0.486}, {"measurement": "glycan array binding signal (z-score)", "setting": "[25]", "result": -0.282}, {"measurement": "glycan array binding signal (z-score)", "setting": "[26]", "result": -0.107}, {"measurement": "glycan array binding signal (z-score)", "setting": "[27]", "result": 0.198}, {"measurement": "glycan array binding signal (z-score)", "setting": "Gal(b1-4)Gal", "result": -0.573}, {"measurement": "glycan array binding signal (z-score)", "setting": "[28]", "result": 0.701}, {"measurement": "glycan array binding signal (z-score)", "setting": "[29]", "result": -0.726}, {"measurement": "glycan array binding signal (z-score)", "setting": "Gal(b1-4)Glc", "result": 0.567}, {"measurement": "glycan array binding signal (z-score)", "setting": "Gal(b1-4)Glc6S", "result": 0.206}, {"measurement": "glycan array binding signal (z-score)", "setting": "Gal(b1-4)GlcNAc", "result": -0.527}, {"measurement": "glycan array binding signal (z-score)", "setting": "[30]", "result": 0.299}, {"measurement": "glycan array binding signal (z-score)", "setting": "Gal(b1-4)GlcNAc(b1-2)Man", "result": 0.857}, {"measurement": "glycan array binding signal (z-score)", "setting": "[31]", "result": -0.13}]}]}
